What was measured:
[1] = Recovery of volatile organic analytes from spiked water and cod liver oil/water emulsion (Table 3); details: 10 min, condenser -10° C., ± one sigma; for Recovery, H2O/Oil 20 mL: 1 g cod liver oil and 20 ml water emulsion; for Recovery, H2O/Oil 5 mL: 1 gram cod liver oil and 5 ml water emulsion; for Recovery, Water 5 mL: 5 mL water, relative to internal standard d3-vinylchloride; for Recovery, Water 20 mL: 20 mL water, relative to d3-vinylchloride
[2] = Recovery of volatile organic analytes from spiked soil (Table 5); details: 50 ppb, condenser -10° C.; for Recovery, Soil/Oil Water: 5 g soil + 1 g cod liver oil + water slurry; for Recovery, Soil/Oil: 5 g soil + 1 g cod liver oil, spiked using 0.2 ml water; for Recovery, Soil/Water: 5 g soil + 5 ml water slurry, 10 min
[3] = Method detection limits for volatile organic analytes in water (Table 6); details: 5 mL water, 4 ppb; for Method Detection Limit, External Standard Method: average of three nonconsecutive-day studies; for Method Detection Limit, Internal Standard Method: d3-vinylchloride internal standard
[4] = Method detection limits for volatile organic analytes in soil (Table 7); details: 4 ppb, average of three nonconsecutive-day studies, values marked ^c: MDL exceed concentration studies
[5] = 1 gram cod liver oil, composite of 25, 50 and 200 ppb spikes, 10 min, condenser -10° C.

Structure (SMILES)	Recovery, H2O/Oil 20 mL [1] [%]	Recovery, H2O/Oil 5 mL [1] [%]	Recovery, Water 5 mL [1] [%]	Recovery, Water 20 mL [1] [%]	Recovery, Soil/Oil Water [2] [%]	Recovery, Soil/Oil [2] [%]	Recovery, Soil/Water [2] [%]	Method Detection Limit, External Standard Method [3] [PPb]	Method Detection Limit, Internal Standard Method [3] [PPb]	MDL, External Standard Method [4] [ppb]	MDL, Internal Standard Method [4] [ppb]	Oil Recovery [5] [%]
CC(Cl)Cl [1,1-Dichloroethane]	84 ± 12	108 ± 18	96 ± 11	98 ± 14	68 ± 4	101 ± 21	67 ± 19	2.3	2.4	1.7	2.1	93 ± 8
CC(Cl)(Cl)Cl [1,1,1-Trichloroethane]	73 ± 9	81 ± 14	96 ± 13	90 ± 15	–	–	137 ± 23	1.6	1.9	2.4	1.7	88 ± 40
ClC(Cl)C(Cl)Cl [1,1,2,2-Tetrachloroethane]	28 ± 7	34 ± 17	78 ± 20	72 ± 20	35 ± 5	26 ± 9	75 ± 22	3.6	2.8	3.2	2.0	25 ± 10
CC(=O)CC(C)C [4-Methyl-2-pentanone]	29 ± 6	43 ± 7	69 ± 20	54 ± 22	81 ± 12	143 ± 28	79 ± 24	3.8	3.7	3.9	4.4	100 ± 33
Clc1ccccc1 [Chlorobenzene]	43 ± 10	40 ± 9	88 ± 12	86 ± 21	38 ± 4	47 ± 17	61 ± 18	2.4	1.9	2.6	1.3	24 ± 4
CCCCC(C)=O [2-Hexanone]	42 ± 7	66 ± 8	54 ± 17	56 ± 24	57 ± 5	82 ± 19	99 ± 20	4.6	4.7	4.6	3.3	67 ± 9
CC(Cl)CCl (centres unmarked) [1,2-Dichloropropane]	58 ± 16	67 ± 11	89 ± 14	86 ± 18	53 ± 9	79 ± 14	56 ± 17	2.9	2.5	3.7	3.0	47 ± 11
CCCl [Chloroethane]	76 ± 20	102 ± 16	88 ± 10	81 ± 17	58 ± 22	70 ± 14	48 ± 20	6.1	5.6	7.5	6.2	72 ± 21
ClCBr [Bromochloromethane, reference compound]	–	79 ± 10	82 ± 12	83 ± 19	112 ± 15	175 ± 14	111 ± 24	–	–	–	–	61 ± 8
